From PMC7884335 come the findings set out here.

This series deals with T1, His-RegX3 (Msm) (Mycobacterium smegmatis MC2 155) (UniProt Q9F868).
T1 sequence (looked up): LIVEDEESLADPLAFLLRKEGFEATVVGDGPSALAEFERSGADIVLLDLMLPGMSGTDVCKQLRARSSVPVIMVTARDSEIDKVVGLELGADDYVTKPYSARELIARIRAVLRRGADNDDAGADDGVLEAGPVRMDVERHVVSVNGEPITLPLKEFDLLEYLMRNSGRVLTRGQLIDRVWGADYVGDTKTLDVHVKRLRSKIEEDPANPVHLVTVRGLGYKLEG
In words: EMSA. The conditions noted are these: 0.6 and 1.2 uM protein; EMSA: Tris-HCl pH 8.0, MgCl2, NaCl, EDTA, 1 mM DTT, 0.01% NP-40, 50 ug/ml poly[d(I-C)], glycerol (masses given, total volume not stated), room temperature 20 min; recombinant protein; residues 5-228; protein details: His6 (pET-28a(+), EcoRI/HindIII); label: biotin; probe letters rebuilt from the primers and the genome.

Tags and fusion partners may be left off the protein sequences shown.

On to “AGCCAGTGGCGATAAGGCTCTTCCCGCAACCTGCGTAGGCGAGGGCCTATGAACGTCTTCGCCACACACACAGCCTAACCGCGATTCTTACACAGGATTTGCAAAGGCTGGCCCACCAGGACACAAAACTACGCATATACAGGCTCTTTACGTGCCATTAGGGGCTGCGTAGCGTGCGGATCATGCGTATTCACGACGTCCGCACCCGGCGCAGCGCCGAGGACTTCCCCCGCTCCGAACATCTCGCGTGGAAGATCGCGCAGGTCGCCGCCGACCCGGTCGCGGTCGACGCCGATGTCGAGGAGATGGTGCTCAACCGGATCATCGACAACGCTGCGGTGTCGGCGGCCTCGGTCACCCGTCGGCTTATCGCCACTGGCT (double strand) [prpR promoter 300 bp (Msm)]”, for which the binding result is on record as “binds”.
